The series is described as follows: Example B: colorhold of PVC/copolymer film calendering formulation on Collin two-roll mill at 190° C. The conditions noted are these: two-roll mill 190° C., Stab 2 and 3 at 1.5 phr, Stab 1 at 1.7 phr (equal tin content).

The results in this text go back to US8198352B2, “High purity monoalkyltin compounds and uses thereof” (Arkema France, priority 2008, dated 2012).

As to `CCCCCCC[CH2][Sn]([S]CC(=O)OCC(CC)CCCC)([S]CC(=O)OCC(CC)CCCC)[S]CC(=O)OCC(CC)CCCC` (stereo not drawn) [Stab 1], the “b* value in Hunter L*a*b* scale” value (t 2 min) is 7.5; the “b* value in Hunter L*a*b* scale” value (t 3 min) is on record as 8.1; the “b* value in Hunter L*a*b* scale” value (t 4 min) is reported as 8.8; the “b* value in Hunter L*a*b* scale” value (t 5 min) was 8.6; the “b* value in Hunter L*a*b* scale” value (t 6 min) was determined as 9.3; the “b* value in Hunter L*a*b* scale” value (t 7 min) stood at 8.9. For the same compound, the “b* value in Hunter L*a*b* scale” value is 10 (t 8 min); 10 (t 9 min); 11 (t 10 min); 13 (t 12 min); 17 (t 15 min); 40 (t 20 min).
